From PMC8316469
No constants are given. Whether binding was seen depends on the method and setting. For some of these results: Binding seen in cells or lysates may run through a third protein. Some results given as binding are weak or reduced against the parent protein; the word gives no strength. For some of these results: Where a sequence is shown, tags or fusion partners need not be part of it.

The chains behind the UniProt entries cited, without tags or fusion partners. Where a name states a change or a piece, a line headed by the entry shows the natural chain unless it says otherwise. Residues count along the entry.
UniProt Q9NZQ7: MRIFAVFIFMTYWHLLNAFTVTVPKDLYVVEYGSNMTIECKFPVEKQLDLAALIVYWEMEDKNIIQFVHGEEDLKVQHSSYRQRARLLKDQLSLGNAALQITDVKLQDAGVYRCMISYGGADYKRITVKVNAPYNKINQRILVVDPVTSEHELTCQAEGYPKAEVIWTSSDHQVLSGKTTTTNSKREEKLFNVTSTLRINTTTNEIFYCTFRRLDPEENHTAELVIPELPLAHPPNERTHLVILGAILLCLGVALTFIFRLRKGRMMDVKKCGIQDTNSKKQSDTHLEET
programmed cell death 1 ligand 1 (PD-L1), human, endogenous (human (endogenous in SW1990 and CFPAC-1)): residues 19-290 of Q9NZQ7
UniProt Q9EP73, residues 19-290: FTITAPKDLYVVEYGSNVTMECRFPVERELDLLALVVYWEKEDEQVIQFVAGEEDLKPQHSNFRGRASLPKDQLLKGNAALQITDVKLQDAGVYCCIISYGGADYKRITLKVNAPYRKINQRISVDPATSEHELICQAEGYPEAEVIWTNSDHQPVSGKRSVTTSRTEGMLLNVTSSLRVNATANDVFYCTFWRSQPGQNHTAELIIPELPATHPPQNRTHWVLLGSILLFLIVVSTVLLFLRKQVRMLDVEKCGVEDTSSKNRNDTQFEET

How the values were obtained:
[1] = molecular target: programmed cell death 1 ligand 1 (PD-L1), human, endogenous (human (endogenous in SW1990 and CFPAC-1)) (UniProt Q9NZQ7); assay: co-IP; endogenous proteins; cleared lysates of SW1990, KPC and CFPAC-1 cells in IP/Western lysis buffer with phosphatase and protease inhibitors; primary antibody 4-6 h, protein A or G Dynabeads 2-4 h at 4 °C; Western blot
[2] = molecular target: programmed cell death 1 ligand 1 (PD-L1), mouse, endogenous (mouse (endogenous in KPC)) (UniProt Q9EP73); assay: proximity ligation; Duo-link assay in KPC cells with anti-NEK2 and anti-PD-L1 as primary antibodies; confocal microscopy
[3] = molecular target: programmed cell death 1 ligand 1 (PD-L1), mouse, endogenous (mouse (endogenous in KPC)) (UniProt Q9EP73); assay: co-IP; endogenous proteins; cleared lysates of SW1990, KPC and CFPAC-1 cells in IP/Western lysis buffer with phosphatase and protease inhibitors; primary antibody 4-6 h, protein A or G Dynabeads 2-4 h at 4 °C; Western blot
[4] = molecular target: GST-PD-L1 (commercial recombinant PD-L1/GST) (human) (UniProt Q9NZQ7); assay: pull-down; GST-PD-L1 (or GST) on glutathione beads, NEK2-His as prey; Pierce GST Protein Interaction Pull-Down Kit; commercial recombinant proteins; both purified

B1: never in mitosis gene A-related kinase 2 (NEK2), human, endogenous (protein, UniProt P51955 1-445)
chain: MPSRAEDYEVLYTIGTGSYGRCQKIRRKSDGKILVWKELDYGSMTEAEKQMLVSEVNLLRELKHPNIVRYYDRIIDRTNTTLYIVMEYCEGGDLASVITKGTKERQYLDEEFVLRVMTQLTLALKECHRRSDGGHTVLHRDLKPANVFLDGKQNVKLGDFGLARILNHDTSFAKTFVGTPYYMSPEQMNRMSYNEKSDIWSLGCLLYELCALMPPFTAFSQKELAGKIREGKFRRIPYRYSDELNEIITRMLNLKDYHRPSVEEILENPLIADLVADEQRRNLERRGRQLGEPEKSQDSSPVLSELKLKEIQLQERERALKAREERLEQKEQELCVRERLAEDKLARAENLLKNYSLLKERKFLSLASNPELLNLPSSVIKKKVHFSGESKENIMRSENSESQLTSKSKCKDLKKRLHAAQLRAQALSDIEKNYQLKSRQILGMR
[1]
  binding: binds

B2: never in mitosis gene A-related kinase 2 (NEK2), mouse, endogenous (protein, UniProt O35942 1-443)
chain: MPSRVEDYEVLHSIGTGSYGRCQKIRRKSDGKILVWKELDYGSMTEVEKQMLVSEVNLLRELKHPNIVSYYDRIIDRTNTTLYIVMEYCEGGDLASVISKGTKDRQYLEEEFVLRVMTQLTLALKECHRRSDGGHTVLHRDLKPANVFLDSKHNVKLGDFGLARILNHDTSFAKTFVGTPYYMSPEQMSCLSYNEKSDIWSLGCLLYELCALMPPFTAFNQKELAGKIREGRFRRIPYRYSDGLNDLITRMLNLKDYHRPSVEEILESPLIADLVAEEQRRNLERRGRRSGEPSKLPDSSPVLSELKLKERQLQDREQALRAREDILEQKERELCIRERLAEDKLARAESLMKNYSLLKEHRLLCLAGGPELDLPSSAMKKKVHFHGESKENTARSENSESYLAKSKCRDLKKRLHAAQLRAQALADIEKNYQLKSRQILGMR
[2]
  binding: binds
[3]
  binding: binds

B3: NEK2-His (commercial recombinant) (protein, UniProt P51955 1-445)
chain: MPSRAEDYEVLYTIGTGSYGRCQKIRRKSDGKILVWKELDYGSMTEAEKQMLVSEVNLLRELKHPNIVRYYDRIIDRTNTTLYIVMEYCEGGDLASVITKGTKERQYLDEEFVLRVMTQLTLALKECHRRSDGGHTVLHRDLKPANVFLDGKQNVKLGDFGLARILNHDTSFAKTFVGTPYYMSPEQMNRMSYNEKSDIWSLGCLLYELCALMPPFTAFSQKELAGKIREGKFRRIPYRYSDELNEIITRMLNLKDYHRPSVEEILENPLIADLVADEQRRNLERRGRQLGEPEKSQDSSPVLSELKLKEIQLQERERALKAREERLEQKEQELCVRERLAEDKLARAENLLKNYSLLKERKFLSLASNPELLNLPSSVIKKKVHFSGESKENIMRSENSESQLTSKSKCKDLKKRLHAAQLRAQALSDIEKNYQLKSRQILGMR
[4]
  binding: binds
